Results from the supplement of paper PMC4604168 (melanoma cell lines).
This is one part of the list. Single values are uncertain, as repeats are few or missing.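 Cells were imaged in 1,536-well plates, and nuclei stained with an antibody against cleaved PARP were counted against all DNA-stained nuclei to give the apoptosis fraction. Screening doses were chosen to leave most cells alive, and resting and induced cleaved-PARP levels differ strongly between cell lines.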

Experiments:
Assay in all cases: cleaved PARP positive nuclei fraction relative to DMSO control; melanoma cells; higher = more apoptosis
Conditions in all cases: library dose: low library concentration; 72 h
[1] = system: 501Mel
[2] = system: A101D
[3] = system: A2058
[4] = system: A375
[5] = system: C32
[6] = system: CBRC008 (line from a melanoma biopsy)
[7] = system: CBRC013 (line from a melanoma biopsy)
[8] = system: CBRC014 (line from a melanoma biopsy)
[9] = system: CBRC016 (line from a melanoma biopsy)
[10] = system: CBRC017 (line from a melanoma biopsy)
[11] = system: COLO792
[12] = system: COLO800
[13] = system: COLO829
[14] = system: G361
[15] = system: IPC-298
[16] = system: IST-MEL1
[17] = system: LB2518-MEL
[18] = system: LOXIMVI
[19] = system: MEL-HO

Row | SMILES | cleaved PARP positive nuclei fraction [1] | cleaved PARP positive nuclei fraction [2] | cleaved PARP positive nuclei fraction [3] | cleaved PARP positive nuclei fraction [4] | cleaved PARP positive nuclei fraction [5] | cleaved PARP positive nuclei fraction [6] | cleaved PARP positive nuclei fraction [7] | cleaved PARP positive nuclei fraction [8] | cleaved PARP positive nuclei fraction [9] | cleaved PARP positive nuclei fraction [10] | cleaved PARP positive nuclei fraction [11] | cleaved PARP positive nuclei fraction [12] | cleaved PARP positive nuclei fraction [13] | cleaved PARP positive nuclei fraction [14] | cleaved PARP positive nuclei fraction [15] | cleaved PARP positive nuclei fraction [16] | cleaved PARP positive nuclei fraction [17] | cleaved PARP positive nuclei fraction [18] | cleaved PARP positive nuclei fraction [19]
1 | CC1(C)NC(=O)N(c2ccc([N+](=O)[O-])c(C(F)(F)F)c2)C1=O [nilutamide] + C=CCn1c(=O)c2cnc(Nc3ccc(N4CCN(C)CC4)cc3)nc2n1-c1cccc(C(C)(C)O)n1 [MK1775] (first compound 1 µM, partner dose 0.02 µM) | 95.6% | 390% | 34.6% | 152% | 80.6% | 261% | 128% | 108% | 141% | 190% | 160% | 52.3% | 137% | 152% | 107% | 197% | 47.5% | 51.8% | 46.8%
2 | CC1(C)NC(=O)N(c2ccc([N+](=O)[O-])c(C(F)(F)F)c2)C1=O [nilutamide] + C[C@@H]1CCN(C(=O)CC#N)C[C@@H]1N(C)c1ncnc2[nH]ccc12 [CP690550] (first compound 1 µM, partner dose 1 µM) | 88.4% | 126% | 62.9% | 110% | 89.6% | 55.4% | 140% | 162% | 253% | 94% | 82.3% | 71.2% | 74.9% | 176% | 44.4% | 625% | 40.9% | 29.8% | 34.8%
3 | C=CCNC1=C2C[C@@H](C)C[C@H](OC)[C@H](O)[C@@H](C)/C=C(\C)[C@H](OC(N)=O)[C@@H](OC)/C=C\C=C(/C)C(=O)NC(=CC1=O)C2=O [Tanespimycin] + Cc1ccc(NC(=O)c2cccc(N(C)C)c2)cc1NC(=O)c1ccc(O)cc1 [ZM336372] (first compound 0.002 µM, partner dose 2 µM) | 45.5% | 43.7% | 94.1% | 102% | 87.9% | 148% | 79.6% | 105% | 237% | 107% | 87.4% | 126% | 83.2% | 31.4% | 58.5% | 102% | 159% | 36% | 72.5%
4 | COc1cc(Nc2ncc(F)c(Nc3ccc4c(n3)NC(=O)C(C)(C)O4)n2)cc(OC)c1OC [Tamatinib] + CC(C)(C)c1cnc(CSc2cnc(NC(=O)C3CCNCC3)s2)o1 [SNS-032] (first compound 0.4 µM, partner dose 0.01 µM) | 261% | 186% | 140% | 76.5% | 52.5% | 319% | 164% | 67.9% | 32.9% | 89.9% | 159% | 91.4% | 92.6% | 101% | 99.7% | 202% | 120% | 142% | 68.2%
5 | Cc1cc(N2CCOCC2)cc2[nH]c(-c3c(NC[C@@H](O)c4cccc(Cl)c4)cc[nH]c3=O)nc12 + C[C@@H]1CCN(C(=O)CC#N)C[C@@H]1N(C)c1ncnc2[nH]ccc12 [CP690550] (first compound 0.2 µM, partner dose 1 µM) | 116% | 44.3% | 57.9% | 164% | 160% | 147% | 113% | 105% | 149% | 80.9% | 93.9% | 144% | 48.4% | 127% | 91.8% | 142% | 116% | 40.2% | 32.5%
6 | C[C@@H]1CCN(C(=O)CC#N)C[C@@H]1N(C)c1ncnc2[nH]ccc12 + CN(NC(=O)CC(=O)NN(C)C(=S)c1ccccc1)C(=S)c1ccccc1 [STA4783] (first compound 1 µM, partner dose 0.006 µM) | 163% | 51.6% | 98.6% | 2700% | 94.4% | 1870% | 168% | 550% | 115% | 168% | 308% | 238% | 144% | 158% | 91.2% | 209% | 294% | 94.3% | 84.7%
7 | OCc1c[nH]c2ccccc12 [Indole-3-carbinol] + Cc1ccc(NC(=O)c2cccc(N(C)C)c2)cc1NC(=O)c1ccc(O)cc1 [ZM336372] (first compound 0.8 µM, partner dose 2 µM) | 81.7% | 36.7% | 139% | 148% | 68.4% | 191% | 97% | 104% | 252% | 93.3% | 74.9% | 90.2% | 60% | 56.2% | 109% | 47.1% | 53% | 56.9% | 71.8%
8 | C[C@]1(c2nc3c(C(N)=O)cccc3[nH]2)CCCN1 [Veliparib] + Cc1ccc(NC(=O)c2cccc(N(C)C)c2)cc1NC(=O)c1ccc(O)cc1 [ZM336372] (first compound 1.4 µM, partner dose 2 µM) | 99.8% | 50.2% | 47.1% | 51.9% | 101% | 49.1% | 191% | 166% | 90.6% | 293% | 55.2% | 27.3% | 49.7% | 96.1% | 108% | 42.7% | 105% | 97.8% | 89.5%
9 | Cn1c(Nc2ccc(C(F)(F)F)cc2)nc2cc(Oc3ccnc(-c4ncc(C(F)(F)F)[nH]4)c3)ccc21 + COc1cc2c(Oc3ccc4[nH]c(C)cc4c3F)ncnc2cc1OCCCN1CCCC1 [cediranib] (first compound 0.08 µM, partner dose 0.4 µM) | 212% | 123% | 167% | 294% | 154% | 290% | 177% | 105% | 286% | 129% | 209% | 37.1% | 157% | 192% | 210% | 103% | 191% | 39.9% | 119%
10 | COc1cc(Nc2ncc(F)c(Nc3ccc4c(n3)NC(=O)C(C)(C)O4)n2)cc(OC)c1OC [Tamatinib] + Cc1cc(N2CCOCC2)cc2[nH]c(-c3c(NC[C@@H](O)c4cccc(Cl)c4)cc[nH]c3=O)nc12 [BMS536924] (first compound 0.4 µM, partner dose 0.2 µM) | 157% | 99.7% | 402% | 395% | 210% | 150% | 133% | 100% | 85.1% | 114% | 133% | 260% | 127% | 184% | 169% | 204% | 586% | 238% | 155%
11 | C=CCn1c(=O)c2cnc(Nc3ccc(N4CCN(C)CC4)cc3)nc2n1-c1cccc(C(C)(C)O)n1 + O=C(O)c1ccc(-c2c[nH]c3ncc(-c4ccccc4)cc23)cc1C1CCCC1 [GSK650394] (first compound 0.02 µM, partner dose 0.16 µM) | 104% | 47.6% | 134% | 137% | 156% | 107% | 78.3% | 118% | 154% | 135% | 104% | 178% | 63.6% | 96.4% | 52.3% | 111% | 215% | 119% | 78.7%
12 | C=CCn1c(=O)c2cnc(Nc3ccc(N4CCN(C)CC4)cc3)nc2n1-c1cccc(C(C)(C)O)n1 + NCC(=O)Nc1ccc(-n2nc(C(F)(F)F)cc2-c2ccc3c(ccc4ccccc43)c2)cc1 [OSU03012] (first compound 0.02 µM, partner dose 1 µM) | 436% | 102% | 244% | 16400% | 111% | 72.6% | 109% | 90.8% | 453% | 136% | 120% | 93.2% | 111% | 68.8% | 31.5% | 51.1% | 90.7% | 176% | 70.6%
13 | Cc1cc(N2CCOCC2)cc2[nH]c(-c3c(NC[C@@H](O)c4cccc(Cl)c4)cc[nH]c3=O)nc12 + NCC(=O)Nc1ccc(-n2nc(C(F)(F)F)cc2-c2ccc3c(ccc4ccccc43)c2)cc1 [OSU03012] (first compound 0.2 µM, partner dose 1 µM) | 155% | 71.9% | 98.9% | 7470% | 27.9% | 305% | 221% | 110% | 133% | 117% | 107% | 217% | 118% | 122% | 219% | 340% | 50.7% | 486% | 277%
14 | C=CCNC1=C2C[C@@H](C)C[C@H](OC)[C@H](O)[C@@H](C)/C=C(\C)[C@H](OC(N)=O)[C@@H](OC)/C=C\C=C(/C)C(=O)NC(=CC1=O)C2=O [Tanespimycin] + CC1(C)NC(=O)N(c2ccc([N+](=O)[O-])c(C(F)(F)F)c2)C1=O [nilutamide] (first compound 0.002 µM, partner dose 1 µM) | 78.3% | 77.1% | 106% | 84.2% | 123% | 222% | 88.5% | 75.6% | 141% | 70.1% | 141% | 39.1% | 89.2% | 180% | 90.4% | 50.3% | 91.9% | 137% | 70.3%
15 | Cn1cncc1[C@@](N)(c1ccc(Cl)cc1)c1ccc2c(c1)c(-c1cccc(Cl)c1)cc(=O)n2C [tipifarnib] + O=C(O)c1ccc(-c2c[nH]c3ncc(-c4ccccc4)cc23)cc1C1CCCC1 [GSK650394] (first compound 0.01 µM, partner dose 0.16 µM) | 98.7% | 44.9% | 56.2% | 146% | 16.4% | 179% | 96.2% | 123% | 182% | 145% | 58.3% | 90.2% | 92.3% | 104% | 48.4% | 103% | 233% | 41.2% | 48%
16 | CC(=O)c1c(C)c2cnc(Nc3ccc(N4CCNCC4)cn3)nc2n(C2CCCC2)c1=O [palbociclib] + NC(=O)Nc1cc(-c2cccc(F)c2)sc1C(=O)N[C@H]1CCCNC1 [AZD7762] (first compound 0.04 µM, partner dose 0.02 µM) | 119% | 52.9% | 103% | 254% | 61.6% | 197% | 81.4% | 102% | 64.9% | 97.7% | 102% | 100% | 28.2% | 223% | 71.3% | 110% | 24.5% | 139% | 38.3%
17 | C=CCNC1=C2C[C@@H](C)C[C@H](OC)[C@H](O)[C@@H](C)/C=C(\C)[C@H](OC(N)=O)[C@@H](OC)/C=C\C=C(/C)C(=O)NC(=CC1=O)C2=O [Tanespimycin] + C=CCn1c(=O)c2cnc(Nc3ccc(N4CCN(C)CC4)cc3)nc2n1-c1cccc(C(C)(C)O)n1 [MK1775] (first compound 0.002 µM, partner dose 0.02 µM) | 85% | 116% | 146% | 134% | 223% | 118% | 156% | 121% | 196% | 100% | 121% | 88% | 48.9% | 69.7% | 95.6% | 34.8% | 203% | 64.5% | 75.1%

Whole records from above. Values in the order: cleaved PARP positive nuclei fraction [1]	cleaved PARP positive nuclei fraction [2]	cleaved PARP positive nuclei fraction [3]	cleaved PARP positive nuclei fraction [4]	cleaved PARP positive nuclei fraction [5]	cleaved PARP positive nuclei fraction [6]	cleaved PARP positive nuclei fraction [7]	cleaved PARP positive nuclei fraction [8]	cleaved PARP positive nuclei fraction [9]	cleaved PARP positive nuclei fraction [10]	cleaved PARP positive nuclei fraction [11]	cleaved PARP positive nuclei fraction [12]	cleaved PARP positive nuclei fraction [13]	cleaved PARP positive nuclei fraction [14]	cleaved PARP positive nuclei fraction [15]	cleaved PARP positive nuclei fraction [16]	cleaved PARP positive nuclei fraction [17]	cleaved PARP positive nuclei fraction [18]	cleaved PARP positive nuclei fraction [19]
CC(=O)c1c(C)c2cnc(Nc3ccc(N4CCNCC4)cn3)nc2n(C2CCCC2)c1=O [palbociclib] + NC(=O)Nc1cc(-c2cccc(F)c2)sc1C(=O)N[C@H]1CCCNC1 [AZD7762] (first compound 0.04 µM, partner dose 0.02 µM) as listed: 119%	52.9%	103%	254%	61.6%	197%	81.4%	102%	64.9%	97.7%	102%	100%	28.2%	223%	71.3%	110%	24.5%	139%	38.3%
Cc1cc(N2CCOCC2)cc2[nH]c(-c3c(NC[C@@H](O)c4cccc(Cl)c4)cc[nH]c3=O)nc12 + C[C@@H]1CCN(C(=O)CC#N)C[C@@H]1N(C)c1ncnc2[nH]ccc12 [CP690550] (first compound 0.2 µM, partner dose 1 µM) as listed: 116%	44.3%	57.9%	164%	160%	147%	113%	105%	149%	80.9%	93.9%	144%	48.4%	127%	91.8%	142%	116%	40.2%	32.5%
